Experimental data as given in patent US20260232684A1, “FLT3 INHIBITORS AND METHODS OF USING THE SAME” (BIOVENTURES, LLC, priority 2023, published 2026).

System: Ba/F3 cells transduced with mutagenized FLT3-ITD
Assay: Saturation mutagenesis resistance selection (XL1-Red mutagenized FLT3-ITD)
Assay type: cell-based
Conditions: cells cultured in 120 nM drug; Western blot quantification normalized to GAPDH
From the text: FIG. 10. (A) Schematic depicting the saturation mutagenesis experimental design and the range of concentrations for compound 1 and compound 2 to select for resistant cells; (B) Population doublings of XL1-Red-mutagenized FLT3-ITD plasmid-transduced Ba/F3 cells in escalating concentrations of compound 1 and compound 2. Arrows indicate the timepoint of passage when a concentration of 0.1 million cells/mL was achieved; (C) Western blot analysis of lysates collected from transduced Ba/F3 cells cultured in (lane 1) vehicle; (lane 2) 120 nM of compound 1; (lane 3) 120n M of compound 2 (lane 4) Ba/F3 cells transduced with MSCVpuro; (lane M) size marker. […] Left table: identity of mutations detected at escalating concentrations of compounds 1 and 2. Right table: IC50 values of compounds 1 and 2 in Ba/F3 cells transformed to growth factor independence with FLT3-ITD and various mutant isoforms.
To determine if these compounds are potentially vulnerable to novel secondary mutations in FLT3-ITD, Ba/F3 cells were transduced with retrovirus generated using MSCVpuro/FLT3-ITD plasmid purified from the XL1-Red bacterial strain, which is deficient in DNA mismatch repair and introduces random point mutations. This assay has successfully identified point mutations for other FLT3 TKIs that were subsequently validated in samples obtained from patients with acquired resistance. […]

Row | Compound | FLT3-ITD overexpression in resistant cells compared with cells propagated in vehicle [×]
1 | CN(C)CCNc1ncc(F)c(-c2cnc3cc(-c4cnn(C)c4)ccn23)n1 [Compound 1] | 28.89
2 | CC(C)(C)c1cc(NC(=O)Cc2ccc(-c3cnc4cc(-c5cnn(CCN6CCOCC6)c5)ccc4n3)cc2)no1 [Compound 2, N-(5-(tert-butyl)isoxazol-3-yl)-2-(4-(6-(1-(2-morpholinoethyl)-1H-pyrazol-4-yl)quinoxalin-2-yl)phenyl) acetamide] | 17.11
